In all, about 410,000 compounds went through this assay and about 18,000 (4.4%) were called active. Inconclusive means that the source gave no clear call. Such entries were picked first, then a sample of the others. No stated cut-off is given here; in the data, active means activity change below about -60%; inconclusive means no clear call, values can overlap the other calls; inactive means above about -39%.
assay: qHTS Assay for inhibitors of the human cytomegalovirus (HCMV); conditions: HFF cells, HCMV-luciferase reporter, 72 h; at 57.5 µM; stronger effect = lower value
In short: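 Compounds were evaluated in HFFs infected with an HCMV luciferase reporter virus (MOI 1 PFU/cell). Luciferase in lysates collected 72 h post infection served as the replication measure.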
On the % scale 0 is the no-effect control and ±100 the full control effect.

Compound	activity change, negative = inhibition
Cc1ccc(C)c(N2CCN(c3nc4ccccc4n4nnnc34)CC2)c1	inactive: 118%
Cc1cccc(NC(=O)CN2CCN(C(=O)CN3C(=O)NC4(CCCCC4C)C3=O)CC2)c1C (stereo unspecified)	inactive: 11%
CCOC(=O)c1ccc(N/C=C/C(=O)c2ccco2)cc1	inactive: 127%
Brc1ccc(-c2nc(-c3ccncc3)no2)cc1	inconclusive: -52.2%
O=S(=O)(c1ccc2c(c1)C(=NO)c1cc(S(=O)(=O)N3CCCCC3)ccc1-2)N1CCCCC1	active: -102%
CC(C)CC(NC(N)=O)C(=O)Nc1ccc(Cl)c(Cl)c1 (stereo unspecified)	inconclusive: -41%
CCc1ccc(NS(=O)(=O)c2ccc3c(c2)oc(=O)n3C)cc1	inconclusive: -46.7%
CC1(C(=O)Nc2cccc(C#N)c2)CCN1C(=O)C/C=C/c1ccccc1 (stereo unspecified)	inconclusive: -58.6%
O=C(Oc1ccc2ccc(OC(=O)N3CCOCC3)cc2c1)N1CCOCC1	inactive: 3.79%
C/C(Cl)=C/Cn1c(SCc2ccc(Cl)cc2)nc2c1c(=O)[nH]c(=O)n2C	inactive: 29.7%
COc1ccc(-c2n(Cc3ccccc3)c3ccccc3[n+]2Cc2ccccc2)cc1	active: -98%
O=c1c(-c2ccc(F)cc2)[n+]([O-])c2ccccc2n1OCc1ccccn1	inconclusive: -49.3%
CN1CCN(CCc2nc3cc(NC(=O)COc4ccc([N+](=O)[O-])cc4)ccc3n2C)CC1	inconclusive: -44%
CCN(CC)CCNC(=O)c1ccc(NC(=O)c2cn(-c3ccccc3)nc2-c2cccs2)cc1	active: -98.1%
Cc1cc(C)c(S(=O)(=O)Cc2ccc(Cl)cc2)c(=O)[nH]1	inconclusive: -48.1%
COc1ccc(/C=N/NC(=O)c2sccc2C)c2ccccc12	active: -62.2%
CC(=O)N(C)c1ccc(OCC(O)CN(c2ccccc2C)S(=O)(=O)c2ccc(C)cc2)cc1 (stereo unspecified)	inactive: -10.4%
Cc1ccc(C(=O)NNC(=S)NC(=O)c2ccccc2)cc1	active: -85.4%
COCc1[nH]nc2c1C(c1ccc3c(c1)OCO3)N(c1ccc(OC)cc1)C2=O (stereo unspecified)	inconclusive: -57.1%
COc1ccc(C2CN=NC2C(=O)c2ccccc2)cc1 (stereo unspecified)	active: -64.4%
O=[N+]([O-])c1cc(/C=N/O)ccc1Sc1ccccc1	inconclusive: -51.5%
O=C(CS(=O)(=O)c1ccc(Cl)cc1)Nc1nc2ccc(Br)cc2s1	inconclusive: 0%

Compound	activity change, negative = inhibition
COCCN=C1Sc2nc3cc4c(cc3cc2CN1CC1CCCO1)OCO4 (stereo unspecified)	inconclusive: -44.5%
CC(=O)S[C@@H]1CC2=CC(=O)CC[C@]2(C)[C@H]2CC[C@@]3(C)[C@@H](CC[C@@]34CCC(=O)O4)[C@H]12	inconclusive: -55.6%
COc1cc2ccccc2cc1C(=O)Nc1ccc(NC(=O)c2cccs2)cc1	inconclusive: -56%
COc1ccccc1CCC(=O)OCC(=O)Nc1c(Br)cc(C)cc1Br	inconclusive: -49%
O=C(Nc1nc(-c2ccc3c(c2)OCCO3)cs1)c1ccc(S(=O)(=O)N2CCCCC2)cc1	active: -99.8%
O=C(NCCC1=CCCCC1)c1coc(=O)c(Br)c1	active: -103%
COC(=O)[C@]1(C)CCC[C@@]2(C)C3CC[C@@]4(C)C[C@]3(CCC21)CC4=NO (stereo partly specified)	inactive: -24.5%
CN(Cc1cccc2cnccc12)C(=O)CCc1nnc(CCc2ccccc2)o1	inconclusive: -50.8%
CN(C)c1ncc(S(=O)(=O)c2ccccc2)c(=O)[nH]1	inactive: 15.5%
Cc1ccc(C(=O)c2cc([N+](=O)[O-])ccc2N2CCOCC2)cc1C	inconclusive: -42.1%
O=C(O)C1C2C=CC(O2)C1C(=O)NCc1ccc(Cl)cc1 (stereo unspecified)	inactive: 3.49%
Nc1ncc(Br)cc1S(=O)(=O)N1CCCCCC1	inconclusive: -54.6%
COc1cc(-c2nnc3n(CCc4ccccc4)c(=O)c4ccccc4n23)cc(OC)c1OC	inconclusive: -53.8%
O=C(NCc1ccc(Cl)cc1)C(=O)NCC(c1cccnc1)N1CCN(c2ccccc2)CC1 (stereo unspecified)	inconclusive: -43.1%
Cc1cc2c(cc1C)NC(CC(=O)Nc1cccc(C)c1C)C(=O)N2 (stereo unspecified)	inactive: -13%
COc1ccc(-c2cnnc(N/N=C/c3ccc(O)c(OC)c3)n2)cc1	inconclusive: -45.2%
CCOC(=O)c1scc(-c2ccc(C)cc2)c1S(=O)(=O)Nc1cc(C)ccc1C	inactive: -16.6%
O=C(NCC1CCCO1)c1nn2c(C(F)(F)F)cc(-c3cc(Br)cs3)nc2c1Br (stereo unspecified)	inconclusive: -41.8%
Cc1ccc(F)cc1NC(=O)C1CC(=O)N(CCc2ccccc2)C1 (stereo unspecified)	inconclusive: -56.3%
c1ccc(-c2nc(NCc3ccco3)c3ccccc3n2)nc1	active: -102%
Cc1ccc(OCC(=O)Nc2nnc(S(=O)(=O)N3CCC(C)CC3)s2)cc1	inconclusive: -54%
COc1ccc(-c2nc(CN3CCN(c4ccccc4OC)CC3)c(C)o2)cc1	inconclusive: -44.1%

Compound	activity change, negative = inhibition
CCCc1cc(C(N)=S)ccn1	inconclusive: -40.9%
CCOC(=O)c1ccccc1NC(=O)CN(c1cc(C(F)(F)F)ccc1Cl)S(C)(=O)=O	inactive: -16.8%
O=C(Oc1ccc2c(=O)c(Oc3ccc4ccccc4c3)coc2c1)c1cccnc1	inactive: -6%
CC(C)n1c(SCC(=O)NC2CC2)nnc1-c1ccco1	inactive: 17.8%
O=[N+]([O-])c1ccn(-c2nc(-c3cccs3)cc(C(F)(F)F)n2)n1	inconclusive: -53.2%
Cc1cc(C(=O)OCC(=O)N2CC(=O)Nc3ccccc32)c(C)n1-c1ccccc1	inconclusive: -49%
COc1ccc(CNC(=O)Cc2nn(C)c(=O)c3ccccc23)cc1	inconclusive: -55.7%
CC(C)NC(=S)N=Nc1c(O)[nH]c2ccc([N+](=O)[O-])cc12	inconclusive: -41.5%
Cc1cccc(C)c1-n1nnnc1C(c1ccccc1OC(F)(F)F)N1CCC(n2c(=O)[nH]c3ccccc32)CC1 (stereo unspecified)	inconclusive: -60%
Cc1ccc2c(c1)N(C(=O)CCC(=O)N1CCOCC1)CC(C)O2 (stereo unspecified)	inactive: 34.2%
O[C@@H]1CN(Cc2cccs2)[C@@H](c2ccccc2)C[C@H]1n1cc(-c2ccc(F)cc2)nn1	inactive: 19.4%
COc1ccc(CCC(=O)N2CCN(C3CCCCC3)CC2)cc1	inconclusive: -41.6%
CCCCN(C)CCNC(=O)c1cc2c(-c3ccccc3F)nn(C)c2s1	inactive: 29.4%
CC(=O)Nc1ccc(S(=O)(=O)N2c3ccccc3C(C)=CC2(C)C)cc1	active: -80.4%
Cc1cccn2c(=O)c3cc(C(=O)NCc4ccc(F)cc4)c(=N)n(CC4CCCO4)c3nc12 (stereo unspecified)	inconclusive: -55.1%
CCOC(=O)/C(C)=N/NC(=O)c1ccc([N+](=O)[O-])cc1	inconclusive: -59.1%
CCCNc1nc(-c2ccccc2)c(C(=O)OCC)cc1C#N	inconclusive: -44.7%
CCCC(CNC(C)=O)(C1=CCCCC1)c1ccccc1 (stereo unspecified)	inconclusive: -42.4%
CC1Cc2ccccc2N1S(=O)(=O)c1nnc(NC(=O)c2ccccc2Br)s1 (stereo unspecified)	inactive: -10.3%
C=CCN1C(=O)/C(=C\C(C)=C\c2ccccc2)SC1=S	inconclusive: -46.6%
Cc1[nH]c2ccc(F)cc2c1CCNC(=O)c1cc2cc(Cl)ccc2oc1=O	inactive: -7.33%
COc1ccc(S(=O)(=O)NCC(c2cccs2)S(=O)(=O)c2ccc(C)cc2)cc1F (stereo unspecified)	inactive: -7.94%

Four records picked at random from those above:
Compound	activity change, negative = inhibition
Cc1ccc(F)cc1NC(=O)C1CC(=O)N(CCc2ccccc2)C1 (stereo unspecified)	inconclusive: -56.3%
CCCCN(C)CCNC(=O)c1cc2c(-c3ccccc3F)nn(C)c2s1	inactive: 29.4%
CC(C)NC(=S)N=Nc1c(O)[nH]c2ccc([N+](=O)[O-])cc12	inconclusive: -41.5%
Cc1cccc(NC(=O)CN2CCN(C(=O)CN3C(=O)NC4(CCCCC4C)C3=O)CC2)c1C (stereo unspecified)	inactive: 11%

Going on with the list:

Compound	activity change, negative = inhibition
CCOC(=O)c1c(NC(=O)c2cccnc2)sc(C(C)=O)c1C	inconclusive: -58.5%
O=C(Nc1ccccc1)C1=C[C@H](c2csc3ccccc23)C[C@H](OCCCCO)O1	inactive: 15%
CSc1cccc(NS(=O)(=O)c2cc(Br)cnc2N)c1	inconclusive: -41.4%
Nn1c(SCc2cccc(Oc3ccccc3)c2)nnc1C(F)(F)F	active: -72.7%
COc1ccc2c(c1)CCc1c(C(=O)Nc3c(C)nn(Cc4ccccc4Cl)c3C)noc1-2	inconclusive: -53.6%
O=C(NCCCc1ccc(F)cc1)C1CCC(=O)N(CCCN2CCCC2=O)C1 (stereo unspecified)	inconclusive: 0%
CCCC(NC(=O)CCl)c1ccccc1 (stereo unspecified)	active: -71.7%
COCCCN(CCC#N)C(=O)c1c(-c2c(Cl)cccc2Cl)noc1C	inconclusive: -43.5%
CC1(C(=O)Nc2cccc(OC(F)(F)F)c2)Cc2c(-c3ccc4c(c3)OCO4)ccnc2O1 (stereo unspecified)	active: -60.3%
COC(=O)c1c(C)oc2c1cc(NS(=O)(=O)c1c(C)cc(C)cc1C)c1ccccc12	inactive: 9.27%
COc1ccc(Cl)cc1NC(=S)Nc1ccccc1C	inconclusive: -42%
CCOC(=O)c1cc(C)sc1NC(=O)CSc1nccn1C	inconclusive: -56.4%
O=C1OCc2cc(NS(=O)(=O)c3cccs3)ccc21	active: -62.7%
Fc1ccccc1C1c2[nH]c3ccccc3c2CCN1Cc1cccn1-c1ncccn1 (stereo unspecified)	inconclusive: -55.2%
COc1ccccc1N1CCN(S(=O)(=O)c2ccc3c(c2)CC(C)N3C(C)=O)CC1 (stereo unspecified)	inconclusive: -43.9%
COc1ccc(-c2csc(NC(=O)CCN3C(=O)C4CC=CCC4C3=O)n2)cc1OC (stereo unspecified)	inactive: 4.24%
O=C1CC(c2ccccc2)=NN1c1ccc([N+](=O)[O-])cc1	active: -78%
C=CCn1c(COc2cccc(C)c2)nnc1SC(C)C(=O)NC1CC1 (stereo unspecified)	inactive: -28.2%
COC(=O)C1=C(c2ccc(F)cc2OCc2ccccc2)C[C@@H]2CC[C@H]1N2C(=O)NCc1cccc(F)c1	inactive: -23.2%
Cc1occc1C(=O)N/N=C/c1ccc(Cl)c([N+](=O)[O-])c1	active: -63%

From PubChem BioAssay AID1259415 (National Center for Advancing Translational Sciences (NCATS), 2018)
